# Source: the supplement of paper PMC12067093, “Discovery and optimisation of a covalent ligand for TRIM25 and its application to targeted protein ubiquitination” (Chemical Science, 2025)
# Protein sequences, listed by entry. Tags and fused reporters are not part of them. Lines headed by an entry give the natural chain unless they say otherwise; changes in a name come on top.
# UniProt Q9NP81: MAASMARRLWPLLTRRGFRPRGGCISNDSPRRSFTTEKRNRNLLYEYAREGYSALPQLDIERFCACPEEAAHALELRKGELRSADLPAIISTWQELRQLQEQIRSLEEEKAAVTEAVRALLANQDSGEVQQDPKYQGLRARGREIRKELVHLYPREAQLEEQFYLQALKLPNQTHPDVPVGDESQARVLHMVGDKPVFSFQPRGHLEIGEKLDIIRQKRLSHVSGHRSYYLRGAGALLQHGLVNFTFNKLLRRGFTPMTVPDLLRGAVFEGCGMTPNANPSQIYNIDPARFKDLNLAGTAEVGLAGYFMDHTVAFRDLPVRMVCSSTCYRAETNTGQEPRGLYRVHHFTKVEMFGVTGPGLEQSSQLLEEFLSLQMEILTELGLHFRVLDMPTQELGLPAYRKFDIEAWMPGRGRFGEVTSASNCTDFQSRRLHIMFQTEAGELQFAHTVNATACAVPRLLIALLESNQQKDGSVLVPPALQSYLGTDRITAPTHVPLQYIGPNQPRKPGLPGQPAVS
# UniProt P49591: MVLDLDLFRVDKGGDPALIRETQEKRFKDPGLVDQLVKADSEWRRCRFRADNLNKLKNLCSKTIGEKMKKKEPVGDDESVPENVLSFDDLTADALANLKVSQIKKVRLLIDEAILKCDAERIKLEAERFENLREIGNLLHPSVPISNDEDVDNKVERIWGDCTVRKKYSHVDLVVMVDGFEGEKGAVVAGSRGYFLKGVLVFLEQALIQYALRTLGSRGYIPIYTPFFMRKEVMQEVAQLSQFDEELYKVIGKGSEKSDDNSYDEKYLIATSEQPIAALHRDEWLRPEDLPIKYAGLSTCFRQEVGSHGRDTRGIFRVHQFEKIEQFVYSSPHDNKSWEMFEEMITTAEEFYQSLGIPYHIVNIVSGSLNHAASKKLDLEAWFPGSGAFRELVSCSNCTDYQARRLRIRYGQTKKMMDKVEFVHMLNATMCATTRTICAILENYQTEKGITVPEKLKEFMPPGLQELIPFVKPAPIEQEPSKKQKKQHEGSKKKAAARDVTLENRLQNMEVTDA
# The other results are listed elsewhere or left out.
# What was measured:
# Assay in all cases: probe-labelled cysteine peptide fold change vs DMSO (competition) (log2 fold change); higher = less target engagement (more negative = stronger competition)
# Settings in all cases: THP-1, incubation time: 4 h
# [1] = molecular target: SARS2_Q9NP81_425_FGEVTSASNCTDFQSR (UniProt Q9NP81)
# [2] = molecular target: SARS2_Q9NP81_64_FCACPEEAAHALELR (UniProt Q9NP81)
# [3] = molecular target: SARS_P49591_162_IWGDCTVR (UniProt P49591)
# [4] = molecular target: SARS_P49591_395+398_ELVSCSNCTDYQAR (UniProt P49591)
# [5] = molecular target: SARS_P49591_395_ELVSCSNCTDYQAR (UniProt P49591)
# [6] = molecular target: SARS_P49591_398_ELVSCSNCTDYQAR (UniProt P49591)
# [7] = molecular target: SARS_P49591_431_VEFVHMLNATMCATTR (UniProt P49591)
# [8] = molecular target: SARS_P49591_438_TICAILENYQTEK (UniProt P49591)
# 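Further: competitive chemoproteomic profiling in live THP-1 cells with an iodoacetamide desthiobiotin (IA-DTB) probe, comparing probe-labelled peptide intensities in compound-treated cells against DMSO-treated controls.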
smiles,measurement,setting,value
CC1Cc2ccccc2N1C(=O)C1CCCN(C(=O)CCl)C1 (mixture of isomers) [TRIM25 ligand 11 (diastereomer mixture)],probe-labelled cysteine peptide fold change,[1]; 10 µM,0.00527
same,probe-labelled cysteine peptide fold change,[1]; 50 µM,0.0883
same,probe-labelled cysteine peptide fold change,[2]; 10 µM,0.0283
same,probe-labelled cysteine peptide fold change,[2]; 50 µM,-0.14
same,probe-labelled cysteine peptide fold change,[3]; 10 µM,-0.0319
same,probe-labelled cysteine peptide fold change,[3]; 50 µM,0.0727
same,probe-labelled cysteine peptide fold change,[4]; 10 µM,-0.078
same,probe-labelled cysteine peptide fold change,[4]; 50 µM,-0.0883
same,probe-labelled cysteine peptide fold change,[5]; 10 µM,0.00133
same,probe-labelled cysteine peptide fold change,[5]; 50 µM,0.134
same,probe-labelled cysteine peptide fold change,[6]; 10 µM,0.107
same,probe-labelled cysteine peptide fold change,[6]; 50 µM,0.176
same,probe-labelled cysteine peptide fold change,[7]; 10 µM,0.102
same,probe-labelled cysteine peptide fold change,[7]; 50 µM,0.113
same,probe-labelled cysteine peptide fold change,[8]; 10 µM,0.138
same,probe-labelled cysteine peptide fold change,[8]; 50 µM,0.0291

# Some of the entries so far, tab-delimited:
smiles	measurement	setting	value
CC1Cc2ccccc2N1C(=O)C1CCCN(C(=O)CCl)C1 (mixture of isomers) [TRIM25 ligand 11 (diastereomer mixture)]	probe-labelled cysteine peptide fold change	[7]; 10 µM	0.102
same	probe-labelled cysteine peptide fold change	[7]; 50 µM	0.113
